No constants are given. Whether binding was seen depends on the method and setting. Binding seen in cells or lysates may run through a third protein. Some entries that bind do so weakly or less than the wild type. Tags and fused reporters may be left off the sequences shown.
Molecular target: T1, MCT2 tagged with CFP on the C-terminus (rat) (UniProt Q63344)
T1 sequence: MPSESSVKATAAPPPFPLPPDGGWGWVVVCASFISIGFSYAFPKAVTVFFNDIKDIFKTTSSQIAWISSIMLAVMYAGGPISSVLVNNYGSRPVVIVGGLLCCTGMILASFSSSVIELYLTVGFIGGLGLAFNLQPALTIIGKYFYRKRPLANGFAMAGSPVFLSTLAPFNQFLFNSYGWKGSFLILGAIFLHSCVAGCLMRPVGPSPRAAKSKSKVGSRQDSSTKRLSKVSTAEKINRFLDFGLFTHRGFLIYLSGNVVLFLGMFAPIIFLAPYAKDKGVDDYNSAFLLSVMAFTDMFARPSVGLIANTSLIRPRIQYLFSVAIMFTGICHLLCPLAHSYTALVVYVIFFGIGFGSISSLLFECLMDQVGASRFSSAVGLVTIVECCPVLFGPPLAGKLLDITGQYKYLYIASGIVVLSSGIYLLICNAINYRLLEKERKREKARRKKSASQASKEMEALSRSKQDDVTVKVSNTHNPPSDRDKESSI
Assay: FRET or BRET; data not shown; MCT2 tagged with CFP on the C-terminus

The chains behind the UniProt entries cited, without tags or fusion partners. Residues count along the entry.
UniProt P97546, residues 29-393: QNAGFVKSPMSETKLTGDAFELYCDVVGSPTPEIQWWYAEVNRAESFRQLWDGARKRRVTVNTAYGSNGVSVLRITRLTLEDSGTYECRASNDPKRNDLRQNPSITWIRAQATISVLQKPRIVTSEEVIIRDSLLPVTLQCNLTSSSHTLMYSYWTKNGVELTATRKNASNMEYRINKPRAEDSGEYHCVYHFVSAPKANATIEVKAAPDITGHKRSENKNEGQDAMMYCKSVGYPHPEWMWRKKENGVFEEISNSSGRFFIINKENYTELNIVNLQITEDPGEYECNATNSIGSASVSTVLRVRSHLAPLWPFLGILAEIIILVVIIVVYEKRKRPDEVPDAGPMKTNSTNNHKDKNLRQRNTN

binding: binds
Substance: np65 C-terminally labelled with YFP (from UniProt P97546-2 29-393)
